PubChem BioAssay AID1671195 | Yale University, 2021

Screen: 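Regulators of LDL receptor activity judged by labelled LDL uptake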 (primary screen)
Cells: human Huh7 hepatoma cells
Knock-down reagent: siRNA pool against human genes, 18 nM
Timing: about 2 to 2.5 days of knockdown, then 8 h LDL uptake
Conditions: DiI-labelled LDL at 30 µg/ml for 8 h, in lipoprotein-deficient serum medium
Measurement: 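Per-cell DiI-LDL intensity by automated imaging; well means scaled to the plate median and given as a robust z-score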
Reading the numbers: robust z-score: higher = more LDL uptake after knockdown
Rule for the call: 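a gene counts as active if at least two replicate z-scores exceed ±2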
This is a random part of about 22,000 reagents. Over the whole deposit, about 1,510 (6.9%) got an active call. 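Active includes knockdowns raising or lowering LDL uptake; positive z-scores mean more uptake, negative mean less.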 Unmarked entries are inactive.

NUP107
- robust z-score, replicate 1: 4.78 (active)
- robust z-score, replicate 2: 4.76
- robust z-score, replicate 3: 6.27

CAND1
- robust z-score, replicate 1: 0.285
- robust z-score, replicate 2: 0.517
- robust z-score, replicate 3: 0.935

FAS
- robust z-score, replicate 1: -0.503
- robust z-score, replicate 2: -1.47
- robust z-score, replicate 3: -0.958

GPSM3
- robust z-score, replicate 1: 0.824
- robust z-score, replicate 2: 0.579
- robust z-score, replicate 3: 0.843

APBB2
- robust z-score, replicate 1: 1.21
- robust z-score, replicate 2: 0.644
- robust z-score, replicate 3: 2.82

CASP8AP2
- robust z-score, replicate 1: 0.824
- robust z-score, replicate 2: -1.17
- robust z-score, replicate 3: 1.28

NCOA5
- robust z-score, replicate 1: -0.473
- robust z-score, replicate 2: -0.584
- robust z-score, replicate 3: -0.553

SFTA3
- robust z-score, replicate 1: 1.06
- robust z-score, replicate 2: 1.02
- robust z-score, replicate 3: 1.44

CDNF
- robust z-score, replicate 1: 0.796
- robust z-score, replicate 2: 0.544
- robust z-score, replicate 3: 0.462

SERPINA3
- robust z-score, replicate 1: 1.94 (active)
- robust z-score, replicate 2: 1.04
- robust z-score, replicate 3: 2

LOC440722 (retired record)
- robust z-score, replicate 1: -0.301
- robust z-score, replicate 2: 1.57
- robust z-score, replicate 3: -0.182

LOC440562 (retired record)
- robust z-score, replicate 1: 0.373
- robust z-score, replicate 2: 0.0735
- robust z-score, replicate 3: 0.13

PTGFR
- robust z-score, replicate 1: -0.644
- robust z-score, replicate 2: -0.774
- robust z-score, replicate 3: -0.56

PLEKHA5
- robust z-score, replicate 1: -1.93
- robust z-score, replicate 2: -0.822
- robust z-score, replicate 3: -1.54

GSG1
- robust z-score, replicate 1: -0.888
- robust z-score, replicate 2: -1.38
- robust z-score, replicate 3: -1.1

GUCY1A1
- robust z-score, replicate 1: -1.17
- robust z-score, replicate 2: 0.352
- robust z-score, replicate 3: -0.339

PLEKHO1
- robust z-score, replicate 1: -0.973
- robust z-score, replicate 2: 0.508
- robust z-score, replicate 3: -0.501

RPL13AP24
- robust z-score, replicate 1: -1.52
- robust z-score, replicate 2: -1.74
- robust z-score, replicate 3: -1.25

DCTN6
- robust z-score, replicate 1: 0.0926
- robust z-score, replicate 2: -0.709
- robust z-score, replicate 3: -0.966

CILP2
- robust z-score, replicate 1: -0.533
- robust z-score, replicate 2: 0.094
- robust z-score, replicate 3: -0.372

PSMC5
- robust z-score, replicate 1: 2.97 (active)
- robust z-score, replicate 2: 2.44
- robust z-score, replicate 3: 1.57

LINC03019
- robust z-score, replicate 1: -0.825
- robust z-score, replicate 2: -0.994
- robust z-score, replicate 3: -1.05

PRB3
- robust z-score, replicate 1: -1.28
- robust z-score, replicate 2: 0.946
- robust z-score, replicate 3: -0.953

SULT6B1
- robust z-score, replicate 1: -0.795
- robust z-score, replicate 2: -0.68
- robust z-score, replicate 3: 0.191

ZNF285CP
- robust z-score, replicate 1: -1.28
- robust z-score, replicate 2: -1.52
- robust z-score, replicate 3: -1.52

CCN4
- robust z-score, replicate 1: 2.57
- robust z-score, replicate 2: 0.818
- robust z-score, replicate 3: 1.71

NFE2
- robust z-score, replicate 1: 0.0537
- robust z-score, replicate 2: -0.0257
- robust z-score, replicate 3: -0.13

RINT1
- robust z-score, replicate 1: 1.52 (active)
- robust z-score, replicate 2: 2.11
- robust z-score, replicate 3: 2.1

CXCL6
- robust z-score, replicate 1: 0.763
- robust z-score, replicate 2: 1.08
- robust z-score, replicate 3: 1

MRPS30
- robust z-score, replicate 1: 0.198
- robust z-score, replicate 2: 0.562
- robust z-score, replicate 3: -0.166

Only “robust z-score, replicate 2”, for 3 of the entries above:
CCN4: 0.818
NFE2: -0.0257
RINT1: 2.11 (active)
